About 2,100 (0.66%) of roughly 320,000 compounds were called active. Inconclusive results, whose numbers are uncertain, are shown with a selection of clear calls. Calls come from the whole dose curve; as a rule, active = well fitted inhibition curve with a large enough effect in the signal ratio, with a control signal flat (not every such curve was filed as active); inconclusive = small, poorly fitted or top-dose-only effect, or effect the other way, or a change in a side signal; inactive = flat fitted curve, though single readings scatter; the % refers to the signal ratio. Potencies beside an inconclusive call are fits to weak or partial responses and may not hold up.
Test: qHTS Assay for Lipid Storage Modulators in Drosophila S3 Cells
Details: BODIPY lipid droplet fluorescence, 18-24 h, cells fed with added oleic acid; lipid storage change, negative = inhibition: at 46.1 µM (top of the series) unless noted
Method in brief: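 Drosophila S3 cells got compounds at several concentrations plus oleic acid (400 uM solution). Laser-scanning cytometry with 488 nm excitation read lipid droplets at 500-530 nm and cells at 575-640 nm. Percent activity was relative to 20 uM Triacsin C.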
% is set by controls: 0 for no effect and ±100 for the full control effect; potency is the fitted concentration of half-maximal effect.

Compound	lipid storage change, negative = inhibition	Potency
Cc1ccc(C(=O)N2CCN(S(C)(=O)=O)C2)cc1	inconclusive: 3.32%	–
COc1ccccc1/C=C/C(=O)OCC(=O)NCc1ccco1	inactive	–
O=S(=O)(NC1=NCCCCC1)c1ccc(Cl)cc1Cl	inconclusive: -7.07%	–
O=C(O)C1=C[C@@H](c2ccc3c(c2)OCO3)C[C@@H](OCc2ccc(CO)cc2)O1	inconclusive: 16.1%	–
COc1cccc(N2CCN(C3C4CC5CC(C4)CC3C5)CC2)c1 (stereo unspecified)	inconclusive: 80.2%	–
COc1cc(/C=N/NC(=O)c2ccncc2)cc2c1OCO2	inconclusive: -2.34%	–
CC(C)[C@H](NC(=O)c1ccccc1F)C(=O)Nc1nc2c(s1)CCCC2	inconclusive: 19.1%	–
COc1cccc(N2CCN(C(=O)c3ccc(CS(=O)c4ccc(C)cc4)o3)CC2)c1 (stereo unspecified)	–	inconclusive: 11.6 µM [falling, partial curve]
O=C(CCSc1ccc(Cl)c(Cl)c1)NC12CC3CC(CC(C3)C1)C2	–	inconclusive: 23.1 µM [falling, single point]
COc1cccc(OCc2nnc(SCC(=O)N3c4ccccc4Sc4ccc(Cl)cc43)o2)c1	inconclusive: 47%	–
CN1CCCC(OC(=O)c2cc(Cl)cc(Cl)c2)C1 (stereo unspecified)	inactive	–
CCn1c(C)c(C(C)=O)c(N2CCC(C(N)=O)CC2)nc1=S	inconclusive: -110%	–
CCN(CC)CCCN1C(=O)c2oc3ccccc3c(=O)c2C1c1cccc(OC)c1OC (stereo unspecified)	inconclusive: 7.21%	–
CCn1nnnc1-c1ccc(OC)c(S(=O)(=O)N2CCCCC2)c1	inconclusive: 21.2%	–
CC(C)n1c(SCC(=O)NC2CCCCC2)nnc1-c1ccco1	inconclusive: 33.9%	–
Brc1ccc(OCCCCN2CCCCC2)cc1	–	inconclusive: 6.51 µM [falling, single point]
COc1ccccc1-n1c(CNC(=O)c2ccc(S(=O)(=O)N3CCCCC3)cc2)n[nH]c1=S	inconclusive: -43.6%	–
Cc1cc2nc3c(nc2cc1C)C(O)=C3O	inconclusive: 36.8%	–
Cc1nn(C)c(C)c1S(=O)(=O)N1CCC(C(=O)NC2CCCc3ccccc32)CC1 (stereo unspecified)	–	inconclusive: 0.146 µM [falling, full curve, poor fit]
Cc1ccccc1NC(=O)CN1C(=O)N/C(=C\c2ccccc2OCc2ccc(C(=O)O)cc2)C1=O	inconclusive: 7.82%	–
CCc1c(C)nc2ncnn2c1N1CCC(C(=O)N2CCN(c3ccc(F)cc3)CC2)CC1	inconclusive: 16.1%	–
Cn1nc([N+](=O)[O-])nc1Sc1ccc(C(C)(C)C)cc1	inconclusive: -65.1%	–
CC(C)(C)CC(=O)N1CCN(Cc2ccc3c(c2)OCO3)CC1	inconclusive: 30.2%	–
O=C(NCCc1ccccn1)c1nc(Cn2cc(Br)cn2)no1	inconclusive: 179%	–
O=C(NNC(=O)c1ccccc1F)C1=NN(c2ccccc2)C(=O)CC1	inconclusive: 24.2%	–
C=CCOc1cccc(/C=N/NC(=O)CC(=O)NC2CCCCC2)c1	inconclusive: 25.9%	–

Reformatted in CSV form: entries from further up
Compound,"lipid storage change, negative = inhibition",Potency
Cc1nn(C)c(C)c1S(=O)(=O)N1CCC(C(=O)NC2CCCc3ccccc32)CC1 (stereo unspecified),–,"inconclusive: 0.146 µM [falling, full curve, poor fit]"
Cc1ccccc1NC(=O)CN1C(=O)N/C(=C\c2ccccc2OCc2ccc(C(=O)O)cc2)C1=O,inconclusive: 7.82%,–
CCc1c(C)nc2ncnn2c1N1CCC(C(=O)N2CCN(c3ccc(F)cc3)CC2)CC1,inconclusive: 16.1%,–
Cn1nc([N+](=O)[O-])nc1Sc1ccc(C(C)(C)C)cc1,inconclusive: -65.1%,–
CC(C)(C)CC(=O)N1CCN(Cc2ccc3c(c2)OCO3)CC1,inconclusive: 30.2%,–

(continued)

Compound	lipid storage change, negative = inhibition	Potency
CSc1nc(-c2ccccc2)c(C#N)c(=O)n1C	inconclusive: 8.3%	–
COc1ccc(S(=O)(=O)N2CCOC23CCN(S(=O)(=O)c2cc(F)ccc2F)CC3)cc1	inconclusive: 32.6%	–
Cc1c(C)[n+](=O)c(-c2ccc(F)cc2)c(C)n1[O-]	inconclusive: -3.36%	–
CC(OC(=O)CCC(=O)c1cccs1)C(=O)Nc1ccc(Cl)cn1 (stereo unspecified)	inconclusive: 32.4%	–
C=CCn1c(CCCOc2ccc(Cl)cc2Cl)n[nH]c1=S	inconclusive: 57%	–
CNC(=O)c1ccc(NC(=O)C2CCN(S(=O)(=O)c3cccc(C(F)(F)F)c3)CC2)cc1	inconclusive: 16.7%	–
CCCCc1nnc(NC(=O)C(C)Sc2nc(O)c(Cc3ccccc3)c(=O)[nH]2)s1 (stereo unspecified)	inactive	–
COc1ccc(CCNC(=O)C23CCC(C)(C(=O)C2=O)C3(C)C)cc1OC (stereo unspecified)	inconclusive: 126%	–
Cn1ncc([N+](=O)[O-])c1C(=O)NCc1ccccc1	inconclusive: 0.141%	–
CN(C)S(=O)(=O)c1cccc(N=c2scc(-c3ccc4c(c3)NC(=O)CO4)n2CC2CCCO2)c1 (stereo unspecified)	–	inconclusive: 18.4 µM [activator, partial curve]
O=[N+]([O-])c1cc(S(=O)(=O)N2CCCC2)ccc1NCCc1ccccc1	inconclusive: -11.9%	–
O=C1COc2ccc(S(=O)(=O)N3CCN(c4cccc(C(F)(F)F)c4)CC3)cc2N1	inconclusive: -100%	–
Cc1ccc(OCC(=O)Oc2cccc(C)c2C)cc1	inconclusive: -16.8%	–
CC(NCc1ccccc1)C1COc2ccccc2O1 (stereo unspecified)	inconclusive: -2.03%	–
CN1c2ccsc2/C(=N/Nc2ccc(F)cc2)CS1(=O)=O	inconclusive: -2.75%	–
Cc1nn(-c2ccc([N+](=O)[O-])cc2)c2c1C(c1ccc(OC(F)F)cc1)N1C(=N2)C(=O)Nc2ccccc21 (stereo unspecified)	inconclusive: -35.9%	–
CCOC(=O)C1CCN(c2nc3cc(OC)ccc3cc2C#N)CC1	inconclusive: 46.3%	–
OC[C@H]1O[C@@H](n2cnc3c(NC4CCCC4)nc(Cl)nc32)[C@H](O)[C@@H]1O	inconclusive: 17.8%	–
CCOc1ccc(NC(=O)CSc2nc(N)c(-c3ccccc3)c(=O)[nH]2)cc1	inconclusive: -44.1%	–
c1ccc(-c2ccc(CN3C[C@@H]4C(c5ccccc5)C5(c6cccnc6)CC4(C5)[C@H]3c3ccccc3)cc2)cc1 (stereo partly specified)	inconclusive: 19.1%	–
Cc1cc(NC(=O)CSCC(=O)Nc2nc3ccccc3s2)no1	inconclusive: 14.7%	–
CC(C)NC(=S)Nc1ccc(S(=O)(=O)Nc2ncccn2)cc1	–	inconclusive: 2.31 µM [activator, partial curve]
CCCC(=O)Nc1ccc(S(=O)(=O)Nc2cc(OC)nc(OC)n2)cc1	–	inconclusive: 0.651 µM [activator, single point]
CCc1ccc(C(=O)N2CCC(c3nc4ccccc4s3)CC2)cc1	inconclusive: 100%	–
Cc1cc(NC(=O)CCC(=O)N(Cc2ccco2)C2(C(=O)NC3CCCC3)CCCCC2)no1	–	inconclusive: 0.0058 µM [falling, full curve, poor fit]
NS(=O)(=O)c1ccc(CCNS(=O)(=O)c2ccc3c(c2)NC(=O)CO3)cc1	inconclusive: 182%	–

Compound	lipid storage change, negative = inhibition	Potency
Cc1cc(C(=O)NNC(=O)/C=C/c2ccco2)c(C)o1	inconclusive	–
CCCc1cc(C(=O)Nc2cc(Cl)ccc2O)no1	–	inconclusive: 18.4 µM [falling, partial curve, poor fit]
CCOC(=O)c1sc(/N=C/c2c(C)[nH]n(-c3ccccc3)c2=O)c(C#N)c1C	–	inconclusive: 2.91 µM [activator, single point]
Clc1ccc2nc(CSc3nncn3-c3ccccc3)cn2c1	–	inconclusive: 2.91 µM [activator, partial curve]
CCN1C(=O)c2cccc3c(S(=O)(=O)N4CCCC4C(=O)O)ccc1c23 (stereo unspecified)	inconclusive: 43.6%	–
CCOC(=O)c1c(CN2CCOCC2)n(-c2ccccc2)c2cc(Br)c(O)c(CN(C)C)c12	inconclusive: 31.1%	–
CCOc1c2ccc(C(=O)NCC34CC5CC(CC(C5)C3)C4)cc2nn1CC	–	inconclusive: 4.61 µM [falling, partial curve]
COc1ccc(Cc2c(O)nc(SCC(=O)c3ccc(OC)cc3)[nH]c2=O)cc1	inconclusive: 19% [at 9.22 µM]	–
Cc1c(C(=O)NC2CC2)oc2ccccc12	–	inconclusive: 16.4 µM [activator, partial curve, poor fit]
Cc1c(C(=O)Nc2nccs2)sc2nc(-c3cccs3)cc(C(F)(F)F)c12	inconclusive: -44.6%	–
Cc1ccc2c(c1)Oc1ccc([N+](=O)[O-])cc1C(=O)N2	inconclusive: 4.59%	–
COc1cc(C(=O)NNC(=O)c2ccco2)cc(OC)c1OC	–	inconclusive: 29.1 µM [activator, partial curve]
O=C(Cc1cccc2ccccc12)NN1C(=O)/C(=C\c2cccnc2)SC1=S	–	inconclusive: 5.17 µM [falling, partial curve]
c1ccc(-c2n[nH]c3c2CCC3)cc1	–	inconclusive: 1.3 µM [falling, partial curve]
NC(=O)c1nsc(C(=O)N(c2ccc(F)cc2)C(C(=O)NCC2CCCO2)c2ccc3ncccc3c2)c1N (stereo unspecified)	–	inconclusive: 1.16 µM [activator, full curve]
CN1C(=O)C(O)(CC(=O)/C=C/C=C/c2ccccc2)c2ccccc21 (stereo unspecified)	inconclusive: -14.9%	–
COC(=O)c1nccnc1C(=O)Nc1ccccc1N1CCOCC1	inconclusive: -31.1%	–
CCOC(CNc1c([N+](=O)[O-])c(=O)n(C)c(=O)n1C)OCC	inconclusive: 0.0702%	–
Cc1ccc(OCC(=O)N/N=C/c2ccncc2)cc1C	–	inconclusive: 0.146 µM [cytotoxic, full curve]
Cc1c(C(=O)N(C)C)sc(NC(=O)c2cc([N+](=O)[O-])cc([N+](=O)[O-])c2)c1C#N	–	inconclusive: 11.6 µM [activator, partial curve, poor fit]
Cc1[nH]c2ccccc2c1-c1nc2ccccc2[nH]c1=O	inconclusive: 90.8%	–
O=C1/C(=C/c2ccccc2[N+](=O)[O-])COc2ccccc21	inconclusive: -69.2% [cytotoxic] [at 0.00295 µM]	–
CC(Oc1ccc(Cl)cc1)C(=O)N1CCCc2ccccc21 (stereo unspecified)	inconclusive: 36.3%	–
O=C(NCC(=O)N(Cc1ccco1)C(C(=O)NC1CCCCC1)c1cccnc1)c1cccs1 (stereo unspecified)	–	inconclusive: 2.06 µM [rising, partial curve]

From PubChem BioAssay AID2685 (National Center for Advancing Translational Sciences (NCATS), 2010)
